Reference: patent US20080027145A1, “Therapeutic Molecules and Methods for Generating and/or Selecting Same” (priority 2004, published 2008)
Results are given in words; binding and its absence hold for the method and conditions named. Binding seen in cells or lysates may run through a third protein. Some binding calls cover weakened binding; strength is not graded here. Tags and fused reporters may be left off the sequences shown.

Sequences of proteins named here, by UniProt entry; tags and fusion partners are left off. A change or cut given only in a name is not applied to a line headed by its entry. A line that says so, or that is headed by a name, gives the form on record, which may keep a tag or linker.
FLAG-tagged mouse Mcl-1 (full-length) (P97287, form named): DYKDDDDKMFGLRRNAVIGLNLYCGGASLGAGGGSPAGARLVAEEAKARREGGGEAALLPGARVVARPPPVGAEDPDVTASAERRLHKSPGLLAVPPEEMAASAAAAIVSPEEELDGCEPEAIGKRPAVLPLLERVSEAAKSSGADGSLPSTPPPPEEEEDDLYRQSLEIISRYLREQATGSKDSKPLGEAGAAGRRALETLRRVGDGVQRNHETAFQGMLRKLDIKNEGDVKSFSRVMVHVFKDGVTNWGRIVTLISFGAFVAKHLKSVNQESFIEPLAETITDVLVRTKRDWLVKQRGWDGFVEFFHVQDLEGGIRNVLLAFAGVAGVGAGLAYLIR
FLAG-tagged human Bcl-xL (full-length) (Q07817, form named): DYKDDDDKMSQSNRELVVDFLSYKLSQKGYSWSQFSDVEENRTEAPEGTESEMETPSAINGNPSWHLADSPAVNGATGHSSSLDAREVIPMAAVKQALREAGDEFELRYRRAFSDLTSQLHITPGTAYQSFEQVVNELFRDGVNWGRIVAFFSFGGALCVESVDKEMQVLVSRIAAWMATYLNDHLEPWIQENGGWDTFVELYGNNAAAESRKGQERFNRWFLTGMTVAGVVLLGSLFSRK
FLAG-tagged human Bcl-2 (full-length) (P10415, form named): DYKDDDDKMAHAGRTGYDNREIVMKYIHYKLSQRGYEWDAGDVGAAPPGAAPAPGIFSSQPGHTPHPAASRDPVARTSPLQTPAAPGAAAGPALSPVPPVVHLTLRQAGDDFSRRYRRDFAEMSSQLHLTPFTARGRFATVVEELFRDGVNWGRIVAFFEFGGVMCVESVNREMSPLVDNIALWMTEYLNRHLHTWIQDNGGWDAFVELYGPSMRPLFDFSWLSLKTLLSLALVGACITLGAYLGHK

How the values were obtained:
[1] = target: FLAG-tagged mouse Mcl-1 (full-length) (mouse) (UniProt P97287); experiment: co-immunoprecipitation from 293T cells
[2] = target: FLAG-tagged mouse Mcl-1 (full-length) (mouse) (UniProt P97287); experiment: co-immunoprecipitation from 35S-labelled 293T cell lysates, immunoblot (FIG. 3F, 3G)
[3] = target: FLAG-tagged mouse Mcl-1 (full-length) (mouse) (UniProt P97287); experiment: co-immunoprecipitation from 35S-labelled 293T cell lysates
[4] = target: FLAG-tagged mouse Mcl-1 (full-length) (mouse) (UniProt P97287); experiment: co-immunoprecipitation from 293T lysates, 35S fluorography (F) and immunoblot of the same filters (G) [G]
[5] = target: FLAG-tagged mouse Mcl-1 (full-length) (mouse) (UniProt P97287); experiment: co-immunoprecipitation from 35S-labelled 293T lysates (IP anti-HA, anti-FLAG, control), fluorography
[6] = target: FLAG-tagged mouse Mcl-1 (full-length) (mouse) (UniProt P97287); experiment: co-immunoprecipitation from 35S-labelled 293T cell lysates (FIG. 3B)
[7] = target: FLAG-tagged human Bcl-xL (full-length) (human) (UniProt Q07817); experiment: co-immunoprecipitation from 293T lysates, 35S fluorography (D) and immunoblot of the same filters (E) [E]
[8] = target: FLAG-tagged human Bcl-2 (full-length) (human) (UniProt P10415); experiment: as above
[9] = target: FLAG-tagged human Bcl-xL (full-length) (human) (UniProt Q07817); experiment: co-immunoprecipitation from 293T cells
[10] = target: FLAG-tagged human Bcl-2 (full-length) (human) (UniProt P10415); experiment: co-immunoprecipitation from 293T cells
[11] = target: FLAG-tagged human Bcl-xL (full-length) (human) (UniProt Q07817); experiment: co-immunoprecipitation from 35S-labelled 293T cell lysates
[12] = target: FLAG-tagged human Bcl-2 (full-length) (human) (UniProt P10415); experiment: as above
[13] = target: FLAG-tagged human Bcl-xL (full-length) (human) (UniProt Q07817); experiment: co-immunoprecipitation from 35S-labelled 293T cell lysates, immunoblot (FIG. 3D, 3E)
[14] = target: FLAG-tagged human Bcl-2 (full-length) (human) (UniProt P10415); experiment: as above

Measured: binding

B1: HA-tagged full-length mouse Noxa (protein)
chain: YPYDVPDYAMPGRKARRNAPVNPTRAELPPEFAAQLRKIGDKVYCTWSAPDITVVLAQMPGKSQKSRMRSPSPTRVPADLKDECAQLRRIGDKVNLRQKLLNLISKLFNLVT
binds: [1] | [2] | [3] | [4]

B2: HA-tagged full-length human Puma (protein)
chain: YPYDVPDYAMARARQEGSSPEPVEGLARDGPRPFPLGRLVPSAVSCGLCEPGLAAAPAAPTLLPAAYLCAPTAPPAVTAALGGSRWPGGPRSRPRGPRPDGPQPSLSLAEQHLESPVPSAPGALAGGPTQAAPGVRGEEEQWAREIGAQLRRMADDLNAQYERRRQEEQQRHRPSPWRVLYNLIMGLLPLPRGHRAPEMEPN
binds: [5] | [1] | [3] | [6]

B3: HA-tagged full-length mouse Bad (protein)
chain: YPYDVPDYAMGTPKQPSLAPAHALGLRKSDPGIRSLGSDAGGRRWRPAAQSMFQIPEFEPSEQEDASATDRGLGPSLTEDQPGPYLAPGLLGSNIHQQGRAATNSHHGGAGAMETRSRHSSYPAGTEEDEGMEEELSPFRGRSRSAPPNLWAAQRYGRELRRMSDEFEGSFKGLPRPKSAGTATQMRQSAGWTRIIQSWWDRNLGKGGSTPSQ
binds: [7] | [8] | [9] | [10] | [11] | [12] | [13] | [14]
